Source: the supplement of paper PMC12819154, “High-throughput peptide-centric local stability assay extends protein–ligand identification to membrane proteins, tissues and bacteria” (Nature Structural & Molecular Biology, 2025)
The list shows a part of the results. Most entries show no effect beyond the scatter of the controls.

Protein sequences, listed by entry. Tags and fused reporters are not part of them. Lines headed by an entry give the natural chain unless they say otherwise; changes in a name come on top.
UniProt Q6GYQ0: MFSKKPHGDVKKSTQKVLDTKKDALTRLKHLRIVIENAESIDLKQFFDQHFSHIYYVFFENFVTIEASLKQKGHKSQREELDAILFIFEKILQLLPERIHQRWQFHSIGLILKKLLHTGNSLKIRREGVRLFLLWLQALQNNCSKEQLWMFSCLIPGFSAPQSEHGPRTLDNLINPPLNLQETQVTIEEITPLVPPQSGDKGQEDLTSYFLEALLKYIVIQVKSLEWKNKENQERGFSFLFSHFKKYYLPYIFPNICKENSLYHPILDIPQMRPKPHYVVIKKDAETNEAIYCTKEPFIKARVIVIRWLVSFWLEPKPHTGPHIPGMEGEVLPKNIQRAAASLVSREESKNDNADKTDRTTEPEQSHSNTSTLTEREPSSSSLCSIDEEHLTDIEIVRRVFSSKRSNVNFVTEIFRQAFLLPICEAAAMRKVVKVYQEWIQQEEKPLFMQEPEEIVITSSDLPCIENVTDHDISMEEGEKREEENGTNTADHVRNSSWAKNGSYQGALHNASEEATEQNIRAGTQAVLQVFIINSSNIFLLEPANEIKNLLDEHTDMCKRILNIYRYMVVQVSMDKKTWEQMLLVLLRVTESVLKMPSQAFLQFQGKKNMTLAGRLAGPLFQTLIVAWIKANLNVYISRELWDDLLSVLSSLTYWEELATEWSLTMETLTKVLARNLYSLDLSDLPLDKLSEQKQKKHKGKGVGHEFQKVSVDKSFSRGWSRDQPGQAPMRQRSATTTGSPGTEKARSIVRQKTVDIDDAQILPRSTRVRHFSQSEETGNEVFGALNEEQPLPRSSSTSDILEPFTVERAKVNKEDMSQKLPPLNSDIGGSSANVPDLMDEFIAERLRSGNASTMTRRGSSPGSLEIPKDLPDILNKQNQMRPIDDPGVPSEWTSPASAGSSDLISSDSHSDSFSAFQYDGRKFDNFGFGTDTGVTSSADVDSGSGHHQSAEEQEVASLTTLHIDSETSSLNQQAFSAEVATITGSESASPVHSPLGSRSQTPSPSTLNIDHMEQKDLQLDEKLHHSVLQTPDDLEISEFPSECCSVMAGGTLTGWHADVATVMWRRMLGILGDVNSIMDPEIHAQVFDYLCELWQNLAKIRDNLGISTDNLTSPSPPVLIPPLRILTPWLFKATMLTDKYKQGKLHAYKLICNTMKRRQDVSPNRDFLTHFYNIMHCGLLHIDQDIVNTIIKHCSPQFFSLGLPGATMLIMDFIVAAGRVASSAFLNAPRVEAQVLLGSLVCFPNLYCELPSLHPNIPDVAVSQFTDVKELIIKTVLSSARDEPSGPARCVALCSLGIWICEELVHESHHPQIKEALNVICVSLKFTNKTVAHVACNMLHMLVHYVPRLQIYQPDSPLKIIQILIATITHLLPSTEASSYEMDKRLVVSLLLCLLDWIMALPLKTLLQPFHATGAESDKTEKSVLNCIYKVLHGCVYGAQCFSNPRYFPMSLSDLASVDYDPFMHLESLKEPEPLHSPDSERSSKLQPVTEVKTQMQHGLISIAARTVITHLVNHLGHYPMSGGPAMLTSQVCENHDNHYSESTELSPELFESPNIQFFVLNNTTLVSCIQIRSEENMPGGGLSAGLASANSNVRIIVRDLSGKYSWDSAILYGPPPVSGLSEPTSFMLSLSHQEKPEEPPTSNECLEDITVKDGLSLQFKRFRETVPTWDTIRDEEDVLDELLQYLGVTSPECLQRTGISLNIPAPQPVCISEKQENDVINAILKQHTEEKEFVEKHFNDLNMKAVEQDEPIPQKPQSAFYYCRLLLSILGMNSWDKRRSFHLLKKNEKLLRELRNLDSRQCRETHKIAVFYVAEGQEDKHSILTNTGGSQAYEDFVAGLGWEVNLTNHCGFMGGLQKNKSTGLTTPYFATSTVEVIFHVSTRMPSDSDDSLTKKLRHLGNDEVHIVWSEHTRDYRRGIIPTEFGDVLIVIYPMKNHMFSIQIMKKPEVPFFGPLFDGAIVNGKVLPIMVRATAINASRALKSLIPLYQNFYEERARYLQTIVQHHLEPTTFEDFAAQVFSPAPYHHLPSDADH
UniProt Q6NVH7: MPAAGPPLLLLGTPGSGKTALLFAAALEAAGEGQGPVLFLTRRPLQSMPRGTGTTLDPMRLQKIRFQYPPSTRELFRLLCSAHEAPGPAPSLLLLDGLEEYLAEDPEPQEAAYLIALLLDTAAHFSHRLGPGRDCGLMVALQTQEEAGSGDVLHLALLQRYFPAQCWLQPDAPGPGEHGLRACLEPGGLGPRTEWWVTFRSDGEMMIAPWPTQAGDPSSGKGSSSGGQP
UniProt Q5VTL8: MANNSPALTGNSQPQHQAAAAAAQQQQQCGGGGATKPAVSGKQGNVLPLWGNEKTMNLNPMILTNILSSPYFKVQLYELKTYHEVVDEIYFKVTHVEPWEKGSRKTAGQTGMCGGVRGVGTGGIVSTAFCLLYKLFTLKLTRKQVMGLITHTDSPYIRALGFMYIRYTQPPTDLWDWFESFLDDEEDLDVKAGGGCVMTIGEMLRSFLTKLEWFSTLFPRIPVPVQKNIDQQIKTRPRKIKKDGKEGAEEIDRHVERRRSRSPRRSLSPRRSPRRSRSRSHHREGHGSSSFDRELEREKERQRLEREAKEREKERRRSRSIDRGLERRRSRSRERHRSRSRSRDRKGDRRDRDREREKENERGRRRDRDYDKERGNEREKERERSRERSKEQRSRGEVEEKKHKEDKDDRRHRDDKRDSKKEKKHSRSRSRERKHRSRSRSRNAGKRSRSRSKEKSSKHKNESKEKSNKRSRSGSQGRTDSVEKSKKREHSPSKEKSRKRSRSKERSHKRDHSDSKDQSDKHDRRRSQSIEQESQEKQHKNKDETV
UniProt Q6P1M3: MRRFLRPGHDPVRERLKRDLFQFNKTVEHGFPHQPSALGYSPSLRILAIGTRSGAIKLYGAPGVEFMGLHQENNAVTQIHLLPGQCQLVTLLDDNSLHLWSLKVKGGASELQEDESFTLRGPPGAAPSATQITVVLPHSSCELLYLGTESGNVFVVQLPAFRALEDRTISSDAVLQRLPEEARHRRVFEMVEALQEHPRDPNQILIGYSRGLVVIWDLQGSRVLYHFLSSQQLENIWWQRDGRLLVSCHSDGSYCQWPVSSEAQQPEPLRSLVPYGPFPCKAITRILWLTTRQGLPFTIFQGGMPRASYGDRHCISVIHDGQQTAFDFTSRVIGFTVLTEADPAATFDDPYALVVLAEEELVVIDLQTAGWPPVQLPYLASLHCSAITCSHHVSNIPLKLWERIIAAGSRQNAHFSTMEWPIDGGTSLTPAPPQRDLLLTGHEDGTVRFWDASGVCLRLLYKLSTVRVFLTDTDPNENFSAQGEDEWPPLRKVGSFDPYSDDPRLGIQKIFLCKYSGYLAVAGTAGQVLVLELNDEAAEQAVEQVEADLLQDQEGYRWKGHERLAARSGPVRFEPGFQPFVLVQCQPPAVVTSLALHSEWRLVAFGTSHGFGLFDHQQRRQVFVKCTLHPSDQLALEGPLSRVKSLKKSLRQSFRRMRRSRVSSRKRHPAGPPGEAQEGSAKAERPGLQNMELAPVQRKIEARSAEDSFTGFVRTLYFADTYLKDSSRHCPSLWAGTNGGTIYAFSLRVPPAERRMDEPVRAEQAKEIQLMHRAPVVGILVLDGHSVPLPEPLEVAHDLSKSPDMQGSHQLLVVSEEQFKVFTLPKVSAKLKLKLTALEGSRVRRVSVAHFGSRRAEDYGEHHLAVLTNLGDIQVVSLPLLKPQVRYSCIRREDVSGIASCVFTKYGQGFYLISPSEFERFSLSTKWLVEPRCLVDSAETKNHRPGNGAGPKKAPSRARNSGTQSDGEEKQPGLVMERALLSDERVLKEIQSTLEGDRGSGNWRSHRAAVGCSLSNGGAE
UniProt Q6NXS1: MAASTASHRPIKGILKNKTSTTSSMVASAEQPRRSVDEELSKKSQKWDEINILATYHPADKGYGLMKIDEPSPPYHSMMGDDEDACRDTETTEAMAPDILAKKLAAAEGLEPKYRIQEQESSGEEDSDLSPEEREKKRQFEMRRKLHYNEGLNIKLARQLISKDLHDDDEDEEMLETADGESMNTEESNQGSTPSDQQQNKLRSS
UniProt Q641Q2, whole entry: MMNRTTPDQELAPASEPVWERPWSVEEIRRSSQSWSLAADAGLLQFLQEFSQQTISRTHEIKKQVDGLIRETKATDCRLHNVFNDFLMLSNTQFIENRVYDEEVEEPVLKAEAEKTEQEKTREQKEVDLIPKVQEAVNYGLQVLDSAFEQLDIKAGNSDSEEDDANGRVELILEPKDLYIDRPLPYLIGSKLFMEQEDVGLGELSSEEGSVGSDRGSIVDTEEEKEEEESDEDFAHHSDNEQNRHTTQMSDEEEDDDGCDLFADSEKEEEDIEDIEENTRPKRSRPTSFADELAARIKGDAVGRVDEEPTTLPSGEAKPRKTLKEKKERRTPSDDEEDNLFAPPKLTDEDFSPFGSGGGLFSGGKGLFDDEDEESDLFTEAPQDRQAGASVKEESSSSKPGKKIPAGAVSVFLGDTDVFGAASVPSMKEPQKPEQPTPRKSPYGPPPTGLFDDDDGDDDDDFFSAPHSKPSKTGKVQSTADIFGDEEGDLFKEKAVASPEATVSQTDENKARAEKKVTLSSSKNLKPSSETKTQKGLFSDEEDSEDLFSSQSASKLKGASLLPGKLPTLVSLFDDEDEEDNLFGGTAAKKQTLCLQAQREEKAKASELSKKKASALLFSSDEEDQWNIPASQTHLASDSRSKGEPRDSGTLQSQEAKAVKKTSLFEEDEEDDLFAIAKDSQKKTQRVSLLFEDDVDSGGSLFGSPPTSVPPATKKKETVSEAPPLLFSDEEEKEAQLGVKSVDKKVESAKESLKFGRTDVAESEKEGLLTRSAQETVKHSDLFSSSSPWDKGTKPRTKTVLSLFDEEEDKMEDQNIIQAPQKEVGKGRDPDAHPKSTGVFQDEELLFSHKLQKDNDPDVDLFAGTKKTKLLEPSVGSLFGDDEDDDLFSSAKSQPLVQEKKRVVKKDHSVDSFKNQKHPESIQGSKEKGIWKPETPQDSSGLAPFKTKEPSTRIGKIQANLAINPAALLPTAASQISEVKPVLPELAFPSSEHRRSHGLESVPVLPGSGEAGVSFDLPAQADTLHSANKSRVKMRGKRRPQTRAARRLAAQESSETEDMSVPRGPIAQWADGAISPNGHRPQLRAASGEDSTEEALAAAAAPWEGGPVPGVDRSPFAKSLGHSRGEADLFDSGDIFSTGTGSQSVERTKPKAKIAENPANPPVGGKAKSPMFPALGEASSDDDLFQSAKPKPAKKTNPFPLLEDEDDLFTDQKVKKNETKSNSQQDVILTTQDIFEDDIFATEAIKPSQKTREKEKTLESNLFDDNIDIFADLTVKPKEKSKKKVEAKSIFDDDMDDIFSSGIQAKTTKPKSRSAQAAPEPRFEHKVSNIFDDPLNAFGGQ
UniProt Q6P5X5: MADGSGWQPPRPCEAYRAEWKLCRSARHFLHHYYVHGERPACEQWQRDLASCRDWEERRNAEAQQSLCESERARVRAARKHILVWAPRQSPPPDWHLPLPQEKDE
UniProt Q6S8J3, whole entry: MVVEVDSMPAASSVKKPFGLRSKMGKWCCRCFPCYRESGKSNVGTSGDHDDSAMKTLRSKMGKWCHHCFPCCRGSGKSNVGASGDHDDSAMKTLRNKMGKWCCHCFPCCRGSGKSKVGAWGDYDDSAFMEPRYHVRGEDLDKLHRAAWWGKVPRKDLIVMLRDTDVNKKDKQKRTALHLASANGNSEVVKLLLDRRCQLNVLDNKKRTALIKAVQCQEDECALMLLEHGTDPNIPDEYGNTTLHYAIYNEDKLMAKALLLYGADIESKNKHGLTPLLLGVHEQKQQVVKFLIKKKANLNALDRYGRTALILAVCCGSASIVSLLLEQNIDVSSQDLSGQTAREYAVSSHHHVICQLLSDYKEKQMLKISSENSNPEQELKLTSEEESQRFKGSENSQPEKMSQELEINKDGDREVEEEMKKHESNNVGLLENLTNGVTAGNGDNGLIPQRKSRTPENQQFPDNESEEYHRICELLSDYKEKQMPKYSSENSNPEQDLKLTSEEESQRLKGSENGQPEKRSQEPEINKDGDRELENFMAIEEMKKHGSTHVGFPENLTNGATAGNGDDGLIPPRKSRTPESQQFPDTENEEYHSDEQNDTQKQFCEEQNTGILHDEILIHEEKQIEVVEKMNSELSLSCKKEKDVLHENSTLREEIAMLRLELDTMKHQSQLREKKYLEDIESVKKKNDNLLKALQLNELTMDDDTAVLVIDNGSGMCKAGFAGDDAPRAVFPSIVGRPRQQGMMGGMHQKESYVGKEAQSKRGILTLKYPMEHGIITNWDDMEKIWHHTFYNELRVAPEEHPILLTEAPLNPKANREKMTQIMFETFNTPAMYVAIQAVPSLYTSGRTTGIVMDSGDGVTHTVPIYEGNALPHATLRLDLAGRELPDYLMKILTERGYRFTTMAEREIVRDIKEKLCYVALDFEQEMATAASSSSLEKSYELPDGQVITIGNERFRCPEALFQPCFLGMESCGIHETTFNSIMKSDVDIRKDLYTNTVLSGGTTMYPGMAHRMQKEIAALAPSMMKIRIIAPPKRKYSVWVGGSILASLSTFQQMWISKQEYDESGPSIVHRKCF

Compound: Cc1nc(Nc2ncc(C(=O)Nc3c(C)cccc3Cl)s2)cc(N2CCN(CCO)CC2)n1 [dasatinib]
Experiment: log2 fold change of tryptic peptide abundance, ligand vs vehicle (limited proteolysis) (log2 ratio); higher = more trypsin-susceptible (destabilized)
Settings: ligand concentration: 5 uM; sample: K562 cleared lysate

Row | Target | log2 fold change
1 | UniProt Q5VV17 (peptide sequence: LLLHGPDPVPGAAGSAAAPR, peptide start residue: 124) | 0.105
2 | UniProt Q6GYQ0 (peptide sequence: DLPDILNK, peptide start residue: 870) | -0.211
3 | ATAD2 (peptide sequence: LITNTAEAVLQK, peptide start residue: 176) (UniProt Q6PL18) | -0.33
4 | ARHGEF16 (peptide sequence: GLGKPGGQGDAIQLSPK, peptide start residue: 160) (UniProt Q5VV41) | -0.0954
5 | CENPP (peptide sequence: ALELDKNR, peptide start residue: 246) (UniProt Q6IPU0) | 0.206
6 | ZFYVE26 (peptide sequence: RIDHVLLNADGIR, peptide start residue: 1009) (UniProt Q68DK2) | 0.516
7 | UniProt Q5W0Q7 (peptide sequence: SVEIEKDAQLK, peptide start residue: 693) | -0.385
8 | UniProt Q6P2H3 (peptide sequence: ELLIDKQR, peptide start residue: 341) | -0.362
9 | UHRF1BP1 (peptide sequence: EALHATMDLTK, peptide start residue: 1031) (UniProt Q6BDS2) | 0.216
10 | SWSAP1 (peptide sequence: GTGTTLDPMR, peptide start residue: 51) (UniProt Q6NVH7) | 0.329
11 | PRPF38B (peptide sequence: DGKEGAEEIDR, peptide start residue: 243) (UniProt Q5VTL8) | -0.215
12 | BLOC1S2 (peptide sequence: LLENMNK, peptide start residue: 65) (UniProt Q6QNY1) | -0.0913
13 | ZMYM4 (peptide sequence: DSSYPFANK, peptide start residue: 224) (UniProt Q5VZL5) | -0.135
14 | LLGL2 (peptide sequence: KRHPAGPPGEAQEGSAK, peptide start residue: 666) (UniProt Q6P1M3) | 0.575
15 | PRPF8 (peptide sequence: QRVESHFDLELR, peptide start residue: 675) (UniProt Q6P2Q9) | 0.111
16 | UniProt Q6NXS1 (peptide sequence: KLAAAEGLEPK, peptide start residue: 103) | 0.0913
17 | UniProt Q641Q2 (peptide sequence: KQTLCLQAQREEK, peptide start residue: 590) | -0.192
18 | MSL1 (peptide sequence: KLKEPGPPLASSQGGSPAPSPAGCGGK, peptide start residue: 51) (UniProt Q68DK7) | 0.946
19 | LYPLAL1 (peptide sequence: IIYPTAPPR, peptide start residue: 56) (UniProt Q5VWZ2) | 0.0977
20 | PPP2R2D (peptide sequence: VPILKPMDLMVEASPR, peptide start residue: 160) (UniProt Q66LE6) | -0.355
21 | JMJD6 (peptide sequence: DSLDWTR, peptide start residue: 22) (UniProt Q6NYC1) | 0.432
22 | C22orf39 (peptide sequence: DLASCRDWEER, peptide start residue: 85) (UniProt Q6P5X5) | -0.111
23 | UniProt Q68CJ9 (peptide sequence: YEERVLK, peptide start residue: 239) | 0.199
24 | PGM2L1 (peptide sequence: MTFGTAGLR, peptide start residue: 65) (UniProt Q6PCE3) | -0.000643
25 | UniProt Q6DD87 (peptide sequence: RAPAPKPYVCLECGK, peptide start residue: 273) | -0.711
26 | RICTOR (peptide sequence: RAQSLKAPSIATIK, peptide start residue: 1299) (UniProt Q6R327) | -0.419
27 | FBXO38 (peptide sequence: CSDEERPSTSR, peptide start residue: 791) (UniProt Q6PIJ6) | 0.235
28 | UniProt Q6S8J3 (peptide sequence: QEYDESGPSIVHRKCF, peptide start residue: 360) | 0.288

Excerpt: nos. 17–22
Row | Target | log2 fold change
17 | UniProt Q641Q2 (peptide sequence: KQTLCLQAQREEK, peptide start residue: 590) | -0.192
18 | MSL1 (peptide sequence: KLKEPGPPLASSQGGSPAPSPAGCGGK, peptide start residue: 51) (UniProt Q68DK7) | 0.946
19 | LYPLAL1 (peptide sequence: IIYPTAPPR, peptide start residue: 56) (UniProt Q5VWZ2) | 0.0977
20 | PPP2R2D (peptide sequence: VPILKPMDLMVEASPR, peptide start residue: 160) (UniProt Q66LE6) | -0.355
21 | JMJD6 (peptide sequence: DSLDWTR, peptide start residue: 22) (UniProt Q6NYC1) | 0.432
22 | C22orf39 (peptide sequence: DLASCRDWEER, peptide start residue: 85) (UniProt Q6P5X5) | -0.111
